Chains of the proteins cited; added tags and fusions are not shown.
UniProt Q05086: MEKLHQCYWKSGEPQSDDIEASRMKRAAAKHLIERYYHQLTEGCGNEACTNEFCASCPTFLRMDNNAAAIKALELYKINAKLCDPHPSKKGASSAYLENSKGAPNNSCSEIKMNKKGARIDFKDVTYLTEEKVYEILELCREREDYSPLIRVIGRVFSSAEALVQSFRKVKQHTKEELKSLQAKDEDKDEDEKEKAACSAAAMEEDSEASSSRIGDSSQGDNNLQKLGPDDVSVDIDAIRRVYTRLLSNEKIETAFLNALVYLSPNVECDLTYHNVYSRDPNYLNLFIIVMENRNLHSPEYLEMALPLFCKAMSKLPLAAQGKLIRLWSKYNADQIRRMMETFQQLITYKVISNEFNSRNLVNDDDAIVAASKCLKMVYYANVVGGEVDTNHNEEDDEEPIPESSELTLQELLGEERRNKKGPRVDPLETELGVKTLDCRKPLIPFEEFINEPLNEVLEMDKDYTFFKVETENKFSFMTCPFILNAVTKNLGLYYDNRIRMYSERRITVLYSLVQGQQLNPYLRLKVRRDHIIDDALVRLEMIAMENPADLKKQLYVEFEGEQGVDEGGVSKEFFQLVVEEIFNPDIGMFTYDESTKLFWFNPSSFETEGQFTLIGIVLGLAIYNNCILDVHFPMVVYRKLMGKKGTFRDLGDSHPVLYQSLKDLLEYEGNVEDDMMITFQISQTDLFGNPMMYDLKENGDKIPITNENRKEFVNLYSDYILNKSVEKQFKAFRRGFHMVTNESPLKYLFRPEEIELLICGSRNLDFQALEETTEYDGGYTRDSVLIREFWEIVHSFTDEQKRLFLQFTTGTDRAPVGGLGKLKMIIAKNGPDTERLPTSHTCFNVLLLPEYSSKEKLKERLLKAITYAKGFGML

According to publication PMC4884944:

Target: GST-tagged E6AP (ubiquitin-protein ligase E6-associated protein) (UniProt Q05086)
Assay: affinity purification with mass spectrometry; purified GST-E6AP incubated with 1 mg whole cell extract (RIPA) of HL60 cells treated with 1.0 uM ATRA for 0, 24 and 48 h, NETN buffer; bands cut from colloidal coomassie gel, trypsin, MALDI-TOF/TOF; only the target purified

binding: binds
B1: MAX-binding protein MNT, endogenous in myeloid cells (protein, UniProt Q99583 1-582)
chain: MSIETLLEAARFLEWQAQQQQRAREEQERLRLEQEREQEQKKANSLARLAHTLPVEEPRMEAPPLPLSPPAPPPAPPPPLATPAPLTVIPIPVVTNSPQPLPPPPPLPAAAQPLPLAPRQPALVGAPGLSIKEPAPLPSRPQVPTPAPLLPDSKATIPPNGSPKPLQPLPTPVLTIAPHPGVQPQLAPQQPPPPTLGTLKLAPAEEVKSSEQKKRPGGIGTREVHNKLEKNRRAHLKECFETLKRNIPNVDDKKTSNLSVLRTALRYIQSLKRKEKEYEHEMERLAREKIATQQRLAELKHELSQWMDVLEIDRVLRQTGQPEDDQASTSTASEGEDNIDEDMEEDRAGLGPPKLSHRPQPELLKSTLPPPSTTPAPLPPHPHPHPHSVALPPAHLPVQQQQPQQKTPLPAPPPPPAAPAQTLVPAPAHLVATAGGGSTVIAHTATTHASVIQTVNHVLQGPGGKHIAHIAPSAPSPAVQLAPATPPIGHITVHPATLNHVAHLGSQLPLYPQPVAVSHIAHTLSHQQVNGTAGLGPPATVMAKPAVGAQVVHHPQLVGQTVLNPVTMVTMPSFPVSTLKLA

Results are given in words; binding and its absence hold for the method and conditions named. Binding seen in cells or lysates may run through a third protein. A yes stands for co-enrichment or nearness to the bait. Other partners may have been found.
